{"source": "patent US7875284B2", "about": "“Methods of manufacturing and modifying taxane coatings for implantable medical devices” (Cook Incorporated, priority 2006, dated 2011)", "origin": "cited, not measured here", "settings": "37° C. water, after about 5 hours; cited from earlier work"}
{"smiles": "CC(=O)O[C@H]1C(=O)[C@@]2(C)[C@H]([C@H](OC(=O)c3ccccc3)[C@]3(O)C[C@H](OC(=O)[C@H](O)[C@@H](NC(=O)c4ccccc4)c4ccccc4)C(C)=C1C3(C)C)[C@]1(OC(C)=O)CO[C@@H]1C[C@@H]2O", "note": "[Anhydrous paclitaxel, paclitaxel]", "values": [{"measurement": "solubility in water", "result": "about 3.5 μg/mL"}]}
{"smiles": "CC(=O)O[C@H]1C(=O)[C@@]2(C)[C@H]([C@H](OC(=O)c3ccccc3)[C@]3(O)C[C@H](OC(=O)[C@H](O)[C@@H](NC(=O)c4ccccc4)c4ccccc4)C(C)=C1C3(C)C)[C@]1(OC(C)=O)CO[C@@H]1C[C@@H]2O", "note": "[dihydrate paclitaxel, paclitaxel]", "values": [{"measurement": "solubility in water", "result": "less than 1.0 μg/mL"}]}
